Laboratory results from US20240350493A1 (Kadmon Corporation, LLC, priority 2022, published 2024).
For at least one compound, name, drawing or mass did not settle the structure.

Legend:
patients with cGVHD = conditions: cited from earlier work
[1] = system: aberrant pro-fibrotic signaling; experiment: pro-fibrotic signaling, in vitro

Compound	overall response rate (ORR) (patients with cGVHD)	aberrant pro-fibrotic signaling [1]
C=CC(=O)N1CCC[C@@H](n2nc(-c3ccc(Oc4ccccc4)cc3)c3c(N)ncnc32)C1 [ibrutinib]	67%	
CC(C)NC(=O)COc1cccc(-c2nc(Nc3ccc4[nH]ncc4c3)c3ccccc3n2)c1 [Belumosudil, 2-{3-[4-(1H-indazol-5-ylamino)-2-quinazolinyl]phenoxy}-N-(propan-2-yl) acetamide]		inhibited aberrant pro-fibrotic signaling
